The chains are these.
B1: PomZ (enzyme, UniProt Q1DEM0 1-319)
chain: MEAPTYSSKQVAEMLGVSPKQIPEESRKDAYTPDDIWELRTTLDRFPARLGHRRQLFLNFKGGTGKTSLSTSYAWRLAELGYAVLLIDLDSQGHATKCLGYEGEDFEKTLLDVLVRKTPLAKVIQKSSLPNLDFVPSNLTMSTVDLALMPMAGREFKLRNALKDVEAQYDVVVFDAPPSFGLLNLNALMAANDLFVPVLADFLSFHGLKLLFETVQSLEEDLNHVLDHVFIVVNSFNATFKLAKEALEALQTHYPEFLLPTIIRQCTKFAQASSEGRPVFVADPSSKGANDIQAMIDNILPRLVAAAAVAQTKGTQQAG
B2: PomZ^K268E (enzyme, UniProt Q1DEM0 1-319)
chain: B1 chain with K268E
B3: PomZ^G62V (enzyme, UniProt Q1DEM0 1-319)
chain: B1 chain with G62V
B4: PomZ^D90A (enzyme, UniProt Q1DEM0 1-319)
chain: B1 chain with D90A

Substitutions are numbered along the chain they refer to. In names and notes the source's numbering stands. No constants are given. Whether binding was seen depends on the method and setting. Binding calls can cover weak binding; strength is not graded here.

This assay addresses PomY (Myxococcus xanthus). The experiment in a line: two-hybrid; Gal4-based yeast two-hybrid in AH109, high stringency: growth on SD/-Leu/-Trp/-His + 10 mM 3-AT agar, 30°C, 120 h, three independent clones.
Consider B1, for which the binding entry is “binds”. To B2 belongs “no binding”. For the molecule B3, the binding entry is given as “no binding”. To B4 belongs “binds”.
